Measurements as given in PMC11116810.
Results are given in words; binding and its absence hold for the method and conditions named. Binding seen in cells or lysates may run through a third protein. A yes stands for co-enrichment or nearness to the bait. Other partners may have been found. For some assays here: A no says only that the protein was not detected with the bait. Each block holds one molecule with its values, some of them ahead of it.

By UniProt entry, the sequences of proteins in these tests, tags left out.
UniProt Q4ZIN3: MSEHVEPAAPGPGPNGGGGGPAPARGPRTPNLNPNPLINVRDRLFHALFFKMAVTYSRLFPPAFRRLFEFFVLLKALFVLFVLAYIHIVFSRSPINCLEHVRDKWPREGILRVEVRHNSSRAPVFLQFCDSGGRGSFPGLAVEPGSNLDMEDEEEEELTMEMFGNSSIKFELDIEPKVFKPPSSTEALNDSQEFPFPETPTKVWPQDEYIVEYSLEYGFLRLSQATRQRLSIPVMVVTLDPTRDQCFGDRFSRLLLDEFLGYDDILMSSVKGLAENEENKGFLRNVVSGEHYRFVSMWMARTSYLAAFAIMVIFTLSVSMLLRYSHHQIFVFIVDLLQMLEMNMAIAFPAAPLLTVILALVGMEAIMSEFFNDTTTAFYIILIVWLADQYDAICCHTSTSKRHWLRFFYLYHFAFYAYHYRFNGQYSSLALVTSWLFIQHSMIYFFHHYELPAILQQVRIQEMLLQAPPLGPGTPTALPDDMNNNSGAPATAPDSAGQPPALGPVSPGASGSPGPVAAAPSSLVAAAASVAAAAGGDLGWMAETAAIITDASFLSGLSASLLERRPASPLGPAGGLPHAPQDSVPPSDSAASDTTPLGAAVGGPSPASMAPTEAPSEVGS
UniProt P84077: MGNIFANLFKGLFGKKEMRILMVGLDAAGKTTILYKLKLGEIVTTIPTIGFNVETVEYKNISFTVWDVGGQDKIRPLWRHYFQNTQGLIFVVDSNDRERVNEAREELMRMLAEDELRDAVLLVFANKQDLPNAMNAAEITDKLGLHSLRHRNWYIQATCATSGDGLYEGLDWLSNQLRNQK
UniProt P18085: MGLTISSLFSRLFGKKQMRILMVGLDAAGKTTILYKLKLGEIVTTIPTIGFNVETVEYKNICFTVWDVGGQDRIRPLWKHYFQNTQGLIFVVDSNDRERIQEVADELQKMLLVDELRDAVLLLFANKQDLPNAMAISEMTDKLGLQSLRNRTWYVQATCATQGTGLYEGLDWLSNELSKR

Columns and labels:
[1] = target: T1, TMUB1-L (long, full-length isoform of transmembrane and ubiquitin-like domain-containing 1) (human (endogenous in HeLa)) (UniProt Q9BVT8); assay: affinity purification with mass spectrometry; IP of endogenous TMUB1 from HeLa lysate (IP buffer with 0.5% Triton X-100); WT compared with TMUB1-L KO cells as control; MS, N = 4
T1 sequence: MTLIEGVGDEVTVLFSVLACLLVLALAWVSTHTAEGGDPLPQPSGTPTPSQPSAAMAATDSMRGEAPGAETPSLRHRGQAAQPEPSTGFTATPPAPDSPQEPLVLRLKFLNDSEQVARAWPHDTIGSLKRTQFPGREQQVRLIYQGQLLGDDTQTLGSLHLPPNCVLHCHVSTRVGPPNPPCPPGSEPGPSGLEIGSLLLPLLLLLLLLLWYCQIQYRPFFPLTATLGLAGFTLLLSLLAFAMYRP

[2] = target: T2, TMUB1 (transmembrane and ubiquitin-like domain-containing 1), isoforms not told apart (human (endogenous in HeLa)) (UniProt Q9BVT8); assay: affinity purification with mass spectrometry; IP with antibodies detecting both TMUB1 isoforms against a control IgG (anti-RFP) from lysates of WT and of ERLIN1/ERLIN2 DKO HeLa cells; MS, N = 4
T2 sequence: T1 sequence

[3] = target: T3, ERLIN2 (ER lipid raft-associated 2) (human (endogenous in HeLa)) (UniProt O94905); assay: affinity purification with mass spectrometry; IP of endogenous ERLIN2 with anti-ERLIN2 antibody and Protein G Dynabeads from HeLa lysate (IP buffer: Tris-HCl pH 7.4 50 mM, KCl 50 mM, Triton X-100 0.5%; 4°C); WT compared with ERLIN1/ERLIN2 DKO cells; label-free quantitative MS, N = 4
T3 sequence: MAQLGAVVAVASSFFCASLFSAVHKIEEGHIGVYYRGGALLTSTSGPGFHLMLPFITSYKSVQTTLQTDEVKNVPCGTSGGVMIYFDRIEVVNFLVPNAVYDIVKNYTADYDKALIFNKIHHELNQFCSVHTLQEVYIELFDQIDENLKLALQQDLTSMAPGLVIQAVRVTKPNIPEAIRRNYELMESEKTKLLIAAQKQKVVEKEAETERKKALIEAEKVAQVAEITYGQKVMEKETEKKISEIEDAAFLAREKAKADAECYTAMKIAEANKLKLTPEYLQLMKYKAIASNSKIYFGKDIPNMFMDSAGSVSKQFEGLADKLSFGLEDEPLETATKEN

[4] = target: TMUB1-S (short isoform of TMUB1) (human (endogenous in HeLa)); assay: affinity purification with mass spectrometry; IP of endogenous TMUB1 from HeLa lysate (IP buffer with 0.5% Triton X-100); WT compared with TMUB1-L KO cells as control; MS, N = 4

binding [1]: binds | binding [2]: binds | binding [3]: binds
Molecule: TMEM259 (transmembrane protein 259) (from UniProt Q4ZIN3 1-620)

binding [3]: binds
Molecule: ARF1 (ADP-ribosylation factor 1) (from UniProt P84077 1-181)

binding [1]: binds
Molecule: VCP (valosin-containing protein) (from UniProt P55072 1-806)

binding [3]: binds
Molecule: ARF4 (ADP-ribosylation factor 4) (from UniProt P18085 1-180)

binding [3]: binds
B1: flotillin-1 (FLOT1) (protein, UniProt O75955 1-427)
chain: MFFTCGPNEAMVVSGFCRSPPVMVAGGRVFVLPCIQQIQRISLNTLTLNVKSEKVYTRHGVPISVTGIAQVKIQGQNKEMLAAACQMFLGKTEAEIAHIALETLEGHQRAIMAHMTVEEIYKDRQKFSEQVFKVASSDLVNMGISVVSYTLKDIHDDQDYLHSLGKARTAQVQKDARIGEAEAKRDAGIREAKAKQEKVSAQYLSEIEMAKAQRDYELKKAAYDIEVNTRRAQADLAYQLQVAKTKQQIEEQRVQVQVVERAQQVAVQEQEIARREKELEARVRKPAEAERYKLERLAEAEKSQLIMQAEAEAASVRMRGEAEAFAIGARARAEAEQMAKKAEAFQLYQEAAQLDMLLEKLPQVAEEISGPLTSANKITLVSSGSGTMGAAKVTGEVLDILTRLPESVERLTGVSISQVNHKPLRTA

binding [3]: binds
B2: RNF170 (RING finger protein 170) (protein, UniProt Q96K19 1-258)
chain: MAKYQGEVQSLKLDDDSVIEGVSDQVLVAVVVSFALIATLVYALFRNVHQNIHPENQELVRVLREQLQTEQDAPAATRQQFYTDMYCPICLHQASFPVETNCGHLFCGACIIAYWRYGSWLGAISCPICRQTVTLLLTVFGEDDQSQDVLRLHQDINDYNRRFSGQPRSIMERIMDLPTLLRHAFREMFSVGGLFWMFRIRIILCLMGAFFYLISPLDFVPEALFGILGFLDDFFVIFLLLIYISIMYREVITQRLTR

binding [4]: no binding | binding [1]: binds
B3: ERLIN1 (ER lipid raft-associated 1) (protein, UniProt O75477 1-348)
chain: MNMTQARVLVAAVVGLVAVLLYASIHKIEEGHLAVYYRGGALLTSPSGPGYHIMLPFITTFRSVQTTLQTDEVKNVPCGTSGGVMIYIDRIEVVNMLAPYAVFDIVRNYTADYDKTLIFNKIHHELNQFCSAHTLQEVYIELFDQIDENLKQALQKDLNLMAPGLTIQAVRVTKPKIPEAIRRNFELMEAEKTKLLIAAQKQKVVEKEAETERKKAVIEAEKIAQVAKIRFQQKVMEKETEKRISEIEDAAFLAREKAKADAEYYAAHKYATSNKHKLTPEYLELKKYQAIASNSKIYFGSNIPNMFVDSSCALKYSDIRTGRESSLPSKEALEPSGENVIQNKESTG

binding [3]: binds
B4: trans-2,3-enoyl-CoA reductase (TECR) (protein, UniProt Q9NZ01 1-308)
chain: MKHYEVEILDAKTREKLCFLDKVEPHATIAEIKNLFTKTHPQWYPARQSLRLDPKGKSLKDEDVLQKLPVGTTATLYFRDLGAQISWVTVFLTEYAGPLFIYLLFYFRVPFIYGHKYDFTSSRHTVVHLACICHSFHYIKRLLETLFVHRFSHGTMPLRNIFKNCTYYWGFAAWMAYYINHPLYTPPTYGAQQVKLALAIFVICQLGNFSIHMALRDLRPAGSKTRKIPYPTKNPFTWLFLLVSCPNYTYEVGSWIGFAIMTQCLPVALFSLVGFTQMTIWAKGKHRSYLKEFRDYPPLRMPIIPFLL

binding [1]: binds
B5: ERLIN2 (ER lipid raft-associated 2) (protein, UniProt O94905 1-339)
chain: T3 sequence

binding [1]: binds | binding [2]: binds
B6: RNF185 (protein, UniProt Q96GF1 1-192)
chain: MASKGPSASASPENSSAGGPSGSSNGAGESGGQDSTFECNICLDTAKDAVISLCGHLFCWPCLHQWLETRPNRQVCPVCKAGISRDKVIPLYGRGSTGQQDPREKTPPRPQGQRPEPENRGGFQGFGFGDGGFQMSFGIGAFPFGIFATAFNINDGRPPPAVPGTPQYVDEQFLSRLFLFVALVIMFWLLIA

binding [3]: binds
B7: ATP-binding cassette subfamily D member 3 (ABCD3) (protein, UniProt P28288 1-659)
chain: MAAFSKYLTARNSSLAGAAFLLLCLLHKRRRALGLHGKKSGKPPLQNNEKEGKKERAVVDKVFFSRLIQILKIMVPRTFCKETGYLVLIAVMLVSRTYCDVWMIQNGTLIESGIIGRSRKDFKRYLLNFIAAMPLISLVNNFLKYGLNELKLCFRVRLTKYLYEEYLQAFTYYKMGNLDNRIANPDQLLTQDVEKFCNSVVDLYSNLSKPFLDIVLYIFKLTSAIGAQGPASMMAYLVVSGLFLTRLRRPIGKMTITEQKYEGEYRYVNSRLITNSEEIAFYNGNKREKQTVHSVFRKLVEHLHNFILFRFSMGFIDSIIAKYLATVVGYLVVSRPFLDLSHPRHLKSTHSELLEDYYQSGRMLLRMSQALGRIVLAGREMTRLAGFTARITELMQVLKDLNHGKYERTMVSQQEKGIEGVQVIPLIPGAGEIIIADNIIKFDHVPLATPNGDVLIRDLNFEVRSGANVLICGPNGCGKSSLFRVLGELWPLFGGRLTKPERGKLFYVPQRPYMTLGTLRDQVIYPDGREDQKRKGISDLVLKEYLDNVQLGHILEREGGWDSVQDWMDVLSGGEKQRMAMARLFYHKPQFAILDECTSAVSVDVEGYIYSHCRKVGITLFTVSHRKSLWKHHEYYLHMDGRGNYEFKQITEDTVEFGS

binding [1]: binds
B8: FAF2 (FAS-associated factor 2) (protein, UniProt Q96CS3 1-445)
chain: MAAPEERDLTQEQTEKLLQFQDLTGIESMDQCRHTLEQHNWNIEAAVQDRLNEQEGVPSVFNPPPSRPLQVNTADHRIYSYVVSRPQPRGLLGWGYYLIMLPFRFTYYTILDIFRFALRFIRPDPRSRVTDPVGDIVSFMHSFEEKYGRAHPVFYQGTYSQALNDAKRELRFLLVYLHGDDHQDSDEFCRNTLCAPEVISLINTRMLFWACSTNKPEGYRVSQALRENTYPFLAMIMLKDRRMTVVGRLEGLIQPDDLINQLTFIMDANQTYLVSERLEREERNQTQVLRQQQDEAYLASLRADQEKERKKREERERKRRKEEEVQQQKLAEERRRQNLQEEKERKLECLPPEPSPDDPESVKIIFKLPNDSRVERRFHFSQSLTVIHDFLFSLKESPEKFQIEANFPRRVLPCIPSEEWPNPPTLQEAGLSHTEVLFVQDLTDE

binding [3]: binds
B9: stomatin (STOM) (protein, UniProt P27105 1-288)
chain: MAEKRHTRDSEAQRLPDSFKDSPSKGLGPCGWILVAFSFLFTVITFPISIWMCIKIIKEYERAIIFRLGRILQGGAKGPGLFFILPCTDSFIKVDMRTISFDIPPQEILTKDSVTISVDGVVYYRVQNATLAVANITNADSATRLLAQTTLRNVLGTKNLSQILSDREEIAHNMQSTLDDATDAWGIKVERVEIKDVKLPVQLQRAMAAEAEASREARAKVIAAEGEMNASRALKEASMVITESPAALQLRYLQTLTTIAAEKNSTIVFPLPIDMLQGIIGAKHSHLG
